This is one part of the list.
Molecular target: OsWRKY34 (Oryza sativa, UniProt Q0JBA9 1-250)
Test: protein-binding microarray (RPBM); PBS, 2% BSA, 51.3 ng/ul salmon testes DNA, 50 uM zinc acetate, 200 nM TF, 25 C, 1 h; high values mean tight binding
Conditions: protein: recombinant; tags: N-terminal polyhistidine and DsRed monomer fusion (pET32a); label: CyDye5-dUTP incorporated in the synthesized complementary strand; 3' TTTTT single-stranded linker to array surface; dsDNA, one strand shown
Summary of the method: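 The binding signal is fluorescence intensity per feature, in arbitrary units, read on an Axon 4000B scanner. Polyhistidine- and DsRed-tagged transcription factors (N-terminal fusions) from E. coli BL21-CodonPlus were purified on Ni–NTA and applied at 200 nM for 1 h at 25 °C to a double-stranded, BSA-blocked custom Agilent array in buffer with 50 µM zinc acetate.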

Amino acid sequences for entries named in this document (tags omitted).
UniProt Q0JBA9, entry or part of it: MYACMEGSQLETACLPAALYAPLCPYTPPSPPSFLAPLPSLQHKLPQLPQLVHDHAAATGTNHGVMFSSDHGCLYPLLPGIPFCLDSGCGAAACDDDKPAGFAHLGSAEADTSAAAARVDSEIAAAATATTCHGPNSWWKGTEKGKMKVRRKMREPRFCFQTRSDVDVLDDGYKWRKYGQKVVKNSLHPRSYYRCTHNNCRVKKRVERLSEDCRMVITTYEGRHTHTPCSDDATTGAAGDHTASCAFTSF

Row | Sequence | binding signal
1 | AGAGCGGATATGACTTTTCAGCTGGAACATTTTACTTCTTCGGAGTCACCTAGTGCAG | 8120 fluorescence intensity (a.u.)
2 | TTCCGGTTGTCACATAATGCTTCCGATCAATTTTTTTCGTCGGAGTCACCTAGTGCAG | 8820 fluorescence intensity (a.u.)
3 | GCTCATGCAGCCCTCGCGCCGGCGCCTGTGACCCTCGCGCCGGAGTCACCTAGTGCAG | 9460 fluorescence intensity (a.u.)
4 | ACAGTTTGACTTTGACCAAAGTCAAAACGTCTTATAATCTCGGAGTCACCTAGTGCAG | 15900 fluorescence intensity (a.u.)
5 | TGTTATTGTCCTGTATCAGTCCCGTGCTGTTTTTCTCTTTCGGAGTCACCTAGTGCAG | 13000 fluorescence intensity (a.u.)
6 | TTCCCTCGTTTTGATCATTCGATCATTCCATGGTTTGGTTCGGAGTCACCTAGTGCAG | 12200 fluorescence intensity (a.u.)
7 | ACAGAATAGTCTCGGCCATTCGTTATTACGCTGCTTCCTTCGGAGTCACCTAGTGCAG | 9450 fluorescence intensity (a.u.)
8 | TATGTTGTTCATATCAGTTCACCTTCTTTCCTTGAATTATCGGAGTCACCTAGTGCAG | 8090 fluorescence intensity (a.u.)
9 | GAGGGACATTGTTTGCACCGGTTTCGATAGTTGGAGGATTCGGAGTCACCTAGTGCAG | 8240 fluorescence intensity (a.u.)
10 | AATCGTCCGCTTCCAACCGCCTGCGCATGTGTGCAACCACCGGAGTCACCTAGTGCAG | 9080 fluorescence intensity (a.u.)
11 | CACTATCTTTATTTGTTTCTGTCTAATCTGTAAGAATACTCGGAGTCACCTAGTGCAG | 8050 fluorescence intensity (a.u.)
12 | CTCCCTGCTTTCAGTGCTAGCTAGCTTCCTCTGACCTCTACGGAGTCACCTAGTGCAG | 8880 fluorescence intensity (a.u.)
13 | ACATGTTCTTTGTTTTATATTTTTCGTGTGACTTACATGTCGGAGTCACCTAGTGCAG | 10100 fluorescence intensity (a.u.)
14 | CCTATATATCTCGCGGCCTCGCATCCCACCGCGACAAACCCGGAGTCACCTAGTGCAG | 8150 fluorescence intensity (a.u.)
15 | CACCGCCACACTTCCTCCCTGCCATCCTCCATTTCTTCCTCGGAGTCACCTAGTGCAG | 8100 fluorescence intensity (a.u.)
16 | CCCTGATCTTCTACACCGTGGCTTTATTCAGCCCTCGTAACGGAGTCACCTAGTGCAG | 11300 fluorescence intensity (a.u.)
17 | AACGGTCTTCGGTCAACGACCTAGCAATTGTTTTGATTTGCGGAGTCACCTAGTGCAG | 8730 fluorescence intensity (a.u.)
18 | GCAACCGCCGCCGCAATGTCCGTCACCGCCGGGGTCGCCCCGGAGTCACCTAGTGCAG | 10500 fluorescence intensity (a.u.)
19 | ATTTGATGCCGTTGACTTTTTTAAATATGTTTAACCGTTCCGGAGTCACCTAGTGCAG | 33000 fluorescence intensity (a.u.)
20 | AGGGGAGGGGCGCTGTATTAATTCGAACGTAACCACCCTCCGGAGTCACCTAGTGCAG | 10000 fluorescence intensity (a.u.)
21 | GCGGTGGGGAGGAGGTCGTCGACGCGAGGAGGTCCGACAGCGGAGTCACCTAGTGCAG | 8040 fluorescence intensity (a.u.)
22 | CAAACTTTCAACTTTCCATCGCATCAAACCTTTCATACACCGGAGTCACCTAGTGCAG | 8310 fluorescence intensity (a.u.)
23 | ATCCAACTACTACTTGGCCGCCTCACACGCTCCCACTCTTCGGAGTCACCTAGTGCAG | 10100 fluorescence intensity (a.u.)

Exported tab-delimited: part of the list above.
Row	Sequence	binding signal
14	CCTATATATCTCGCGGCCTCGCATCCCACCGCGACAAACCCGGAGTCACCTAGTGCAG	8150 fluorescence intensity (a.u.)
15	CACCGCCACACTTCCTCCCTGCCATCCTCCATTTCTTCCTCGGAGTCACCTAGTGCAG	8100 fluorescence intensity (a.u.)

From article PMC7819943, “Rice protein-binding microarrays: a tool to detect cis-acting elements near promoter regions in rice”
